In PubChem BioAssay AID720504 (National Center for Advancing Translational Sciences (NCATS), 2013):
Hit rate of the full screen: of about 360,000 compounds, about 10,000 (2.8%) were called active. The shares of active, inactive and inconclusive entries below differ from those in the screen. The call rests on the fitted dose curve; in most records, active means well fitted inhibition curve with a large enough effect; inconclusive means small, poorly fitted or top-dose-only effect; inactive means flat fitted curve, though single readings scatter. A potency beside an inconclusive call is a rough fit, not a confirmed value.

By UniProt entry, the sequences of proteins in these tests, tags left out.
UniProt P53350, whole entry, looked up: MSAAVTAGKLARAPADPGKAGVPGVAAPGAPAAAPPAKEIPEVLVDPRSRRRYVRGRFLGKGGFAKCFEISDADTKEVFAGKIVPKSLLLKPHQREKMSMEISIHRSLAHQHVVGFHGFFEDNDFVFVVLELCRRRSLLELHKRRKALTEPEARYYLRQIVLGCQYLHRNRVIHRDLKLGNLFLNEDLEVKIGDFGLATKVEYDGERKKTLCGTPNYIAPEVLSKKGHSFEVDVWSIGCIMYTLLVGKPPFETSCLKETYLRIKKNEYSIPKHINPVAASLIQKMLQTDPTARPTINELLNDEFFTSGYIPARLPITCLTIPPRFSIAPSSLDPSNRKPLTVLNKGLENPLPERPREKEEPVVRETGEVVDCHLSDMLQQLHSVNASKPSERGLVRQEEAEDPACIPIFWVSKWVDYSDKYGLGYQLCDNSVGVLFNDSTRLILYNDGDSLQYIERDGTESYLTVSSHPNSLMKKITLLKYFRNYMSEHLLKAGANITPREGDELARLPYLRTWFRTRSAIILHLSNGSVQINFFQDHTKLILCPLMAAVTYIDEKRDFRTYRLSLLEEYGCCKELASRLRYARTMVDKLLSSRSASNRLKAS

What follows are compounds tested against Serine/threonine-protein kinase PLK1 (Homo sapiens) (UniProt P53350) (assay: qHTS for Inhibitors of PLK1-PDB (polo-like kinase 1 - polo-box domain): Primary Screen). Settings: Plk1 PBD binding of FITC phosphopeptide, fluorescence polarization.
Further: nearly all actives have a fitted effect of over 65% in size.
On the % scale 0 is the no-effect control and ±100 the full control effect; potency means the concentration at half of the fitted maximal effect.
Wherever max response, negative = inhibition is given: series mostly up to about 57 µM.

SMILES | Potency | max response, negative = inhibition
Oc1ccc(-c2nnc(Nc3cccc(O)c3)c3ccccc23)cc1 | inconclusive: 29.9 µM [inhibitor, partial curve] | 
Cc1ccc(/C(O)=C2/C(=O)C(=O)N(c3ccccn3)C2c2ccc([N+](=O)[O-])cc2)cc1 (centres undefined) |  | inactive: -15.4%
Cc1[nH]c2ccccc2c1/C=N/Nc1nc2ccccc2[nH]1 |  | inactive: -2.67%
COc1ccc(C(C)=O)cc1CSc1nc2cc(C(=O)O)ccc2c(=O)n1Cc1ccccc1 | inconclusive: 21.2 µM [inhibitor, partial curve] | 
COc1ccccc1-c1cnn2c(NC3CCCC3)cc(C)nc12 |  | inactive: -3.14%
COc1cccc(/C=C/C(=O)NCCc2ccc(OC)c(OC)c2)c1 |  | inactive: 3.26%
CCOc1ccc(NC(=S)NNC(=S)Nc2cccc(C(F)(F)F)c2)cc1 | inconclusive: 16.8 µM [inhibitor, single point] | 
NS(=O)(=O)c1ccc(NC2=CC(=O)C(=O)c3ccccc32)cc1 | active: 26.7 µM | 
COCCN1Cc2cccc(C(=O)NCc3cccs3)c2C1=O | inconclusive: 9.47 µM [inhibitor, partial curve] | 
O=Cc1cc(N=Nc2ccccc2Cl)ccc1O | inconclusive: 26.7 µM [inhibitor, single point] | 
CSc1nnc(SCc2nc3sc(C(=O)O)c(C)c3c(=O)[nH]2)s1 | inconclusive: 16.8 µM [inhibitor, partial curve] | 
Cc1ccc(S(=O)(=O)N2CCOCC2)cc1NC(=O)c1cc(-c2ccccn2)nc2ccccc12 |  | inconclusive: -31.8% [inhibitor]
CC(=O)N1CCN(C(=O)CCCNC(=O)c2ccc(Cl)cc2)CC1 |  | inactive: -0.307%
CC12CCC(/C(=C/NNc3ccc([N+](=O)[O-])cc3[N+](=O)[O-])C1=O)C2(C)C (centres undefined) | inconclusive: 15 µM [inhibitor, partial curve] | 
Cc1cc(S(=O)(=O)Nc2nc(CN3CCOCC3)nc3sc4c(c23)CCC4)cc(C)c1C |  | inconclusive: -33.6% [inhibitor]
CC(C)(C)c1cc[n+](-c2[nH]c(=O)sc2/C=N/NC(=O)c2ccccc2[O-])cc1 | inconclusive: 21.2 µM [inhibitor, partial curve] | 
CN(Cc1ccccc1)C1=CC(=[N+]2CCCC2)CC(C)(C)C1 | inconclusive: 29.9 µM [inhibitor, partial curve] | 
CCOc1ccc(-c2c(=O)n(O)c3ccccc3[n+]2[O-])cc1 | inconclusive: 26.7 µM [inhibitor, partial curve] | 
CC(=O)NC(CSC(CC(=O)c1ccco1)c1ccc(C)cc1)C(=O)O (centres undefined) |  | inactive: -7.37%

Random excerpt: 2 records from the list, in no set order.
SMILES | Potency | max response, negative = inhibition
CCOc1ccc(-c2c(=O)n(O)c3ccccc3[n+]2[O-])cc1 | inconclusive: 26.7 µM [inhibitor, partial curve] | 
NS(=O)(=O)c1ccc(NC2=CC(=O)C(=O)c3ccccc32)cc1 | active: 26.7 µM | 
